Data source: PubChem BioAssay AID652243 (Drosophila RNAi Screening Center, 2013)

Test: 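Knock-downs that decrease or increase androgen receptor reporter signal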 (primary screen)
System: Drosophila S2R+ cells
Reagent: long dsRNA against Drosophila genes
Timing: 72 h (48 h, then 24 h hormone)
Treatment: synthetic androgen R1881 at 10 nM for 24 h
Read-out: 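Firefly light from an androgen-responsive reporter and Renilla control light per well, raw and unnormalised, for each of two replicates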
Scale: firefly reporter light: higher = more light from androgen-responsive reporter; Renilla control light: higher = more constitutive control signal (cell number, transfection)
Active means: 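Hit when the log firefly-to-Renilla ratio dropped or increased by a fixed fold versus the mean of GFP or LacZ controls across duplicate plates; lowering cut given as 1.5 and as 3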
Meaning of the calls: active = hit: reporter lowered or raised; inactive = no hit
The deposit covers about 24,000 reagents; shown is an unselected part of those with a known target gene and a result. In the full data, 246 (1%) are marked active. 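Plates not normalised; calls are printed but the firefly/Renilla ratio behind them is not deposited; fold cut for lowering reported inconsistently.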 The raw values are shown without normalisation. Names joined by + are all predicted targets of the reagent. Not given: the amount of reagent.

Against Prx6c + CG12896 + Prx6b [DRSC06148] the deposit lists firefly reporter light, replicate 1 = 2.82e5; firefly reporter light, replicate 2 = 2.85e5; Renilla control light, replicate 1 = 1.88e6; Renilla control light, replicate 2 = 2.02e6; inactive.
Prx6c + CG12896 + Prx6b [DRSC28111] showed firefly reporter light, replicate 1 = 6.60e5; firefly reporter light, replicate 2 = 6.36e5; Renilla control light, replicate 1 = 2.25e6; Renilla control light, replicate 2 = 1.99e6; inactive.
Coprox [DRSC01996] showed firefly reporter light, replicate 1 = 4.94e5; firefly reporter light, replicate 2 = 6.46e5; Renilla control light, replicate 1 = 1.64e6; Renilla control light, replicate 2 = 1.88e6; inactive.
Knock-down of Coprox [DRSC28744] gave: firefly reporter light, replicate 1 = 3.48e5; firefly reporter light, replicate 2 = 4.29e5; Renilla control light, replicate 1 = 7.61e5; Renilla control light, replicate 2 = 1.32e6; inactive.

Laid out differently: entries from further up.
Coprox [DRSC01996]
- firefly reporter light, replicate 1: 4.94e5
- firefly reporter light, replicate 2: 6.46e5
- Renilla control light, replicate 1: 1.64e6
- Renilla control light, replicate 2: 1.88e6
- Outcome: inactive

Coprox [DRSC28744]
- firefly reporter light, replicate 1: 3.48e5
- firefly reporter light, replicate 2: 4.29e5
- Renilla control light, replicate 1: 7.61e5
- Renilla control light, replicate 2: 1.32e6
- Outcome: inactive

Next results follow:
After knock-down of Ns3 [DRSC18607] the results were firefly reporter light, replicate 1 = 7.15e5; firefly reporter light, replicate 2 = 7.22e5; Renilla control light, replicate 1 = 1.82e6; Renilla control light, replicate 2 = 1.56e6; inactive.
Ns3 [DRSC25847] scored firefly reporter light, replicate 1 = 3.27e5; firefly reporter light, replicate 2 = 2.96e5; Renilla control light, replicate 1 = 7.86e5; Renilla control light, replicate 2 = 7.22e5; inactive.
CG34423 + Mthfs [DRSC04088] showed firefly reporter light, replicate 1 = 2.30e5; firefly reporter light, replicate 2 = 3.51e5; Renilla control light, replicate 1 = 1.60e6; Renilla control light, replicate 2 = 1.44e6; inactive.
Cpr49Ae [DRSC07201] scored firefly reporter light, replicate 1 = 6.01e5; firefly reporter light, replicate 2 = 4.99e5; Renilla control light, replicate 1 = 1.44e6; Renilla control light, replicate 2 = 1.44e6; inactive.
Silencing of Cpr49Ae [DRSC27662] resulted in: firefly reporter light, replicate 1 = 4.32e5; firefly reporter light, replicate 2 = 4.11e5; Renilla control light, replicate 1 = 6.01e5; Renilla control light, replicate 2 = 9.27e5; inactive.
Silencing of slgA [DRSC20586] resulted in: firefly reporter light, replicate 1 = 95699; firefly reporter light, replicate 2 = 63421; Renilla control light, replicate 1 = 4.07e5; Renilla control light, replicate 2 = 5.19e5; inactive.
slgA [DRSC27543] gave firefly reporter light, replicate 1 = 5.45e5; firefly reporter light, replicate 2 = 2.69e5; Renilla control light, replicate 1 = 5.74e5; Renilla control light, replicate 2 = 4.23e5; inactive.
Syx8 [DRSC10402] gave firefly reporter light, replicate 1 = 2.38e5; firefly reporter light, replicate 2 = 1.91e5; Renilla control light, replicate 1 = 2.27e6; Renilla control light, replicate 2 = 2.09e6; inactive.
For Syx8 [DRSC22498] the deposit lists firefly reporter light, replicate 1 = 3.65e5; firefly reporter light, replicate 2 = 7.52e5; Renilla control light, replicate 1 = 9.38e5; Renilla control light, replicate 2 = 1.67e6; inactive.
Syx8 [DRSC27747] scored firefly reporter light, replicate 1 = 3.86e5; firefly reporter light, replicate 2 = 3.78e5; Renilla control light, replicate 1 = 5.72e5; Renilla control light, replicate 2 = 1.08e6; inactive.
